Paper PMC12786276
No constants are given. Whether binding was seen depends on the method and setting. Binding seen in cells or lysates may run through a third protein. Some binding calls cover weakened binding; strength is not graded here.

Protein sequences, listed by entry. Tags and fused reporters are not part of them. Lines headed by an entry give the natural chain unless they say otherwise; changes in a name come on top. Chains listed by the source or under a name are the forms on record and can include a tag or linker. Residues count along the entry.
HA-tagged CD47 (pcDNA3.1–hCD47–HA) (Q08722, residues 19-323): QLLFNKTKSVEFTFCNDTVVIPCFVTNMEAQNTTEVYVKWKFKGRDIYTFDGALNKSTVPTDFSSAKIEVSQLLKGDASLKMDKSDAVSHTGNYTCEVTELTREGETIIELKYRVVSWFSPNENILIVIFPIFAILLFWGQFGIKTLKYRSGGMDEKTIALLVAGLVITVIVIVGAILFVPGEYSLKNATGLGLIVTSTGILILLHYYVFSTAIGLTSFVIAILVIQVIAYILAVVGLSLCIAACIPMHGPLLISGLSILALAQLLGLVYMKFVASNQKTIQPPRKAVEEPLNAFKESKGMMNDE
HA–CD47Δ26–32 (Q08722, form named): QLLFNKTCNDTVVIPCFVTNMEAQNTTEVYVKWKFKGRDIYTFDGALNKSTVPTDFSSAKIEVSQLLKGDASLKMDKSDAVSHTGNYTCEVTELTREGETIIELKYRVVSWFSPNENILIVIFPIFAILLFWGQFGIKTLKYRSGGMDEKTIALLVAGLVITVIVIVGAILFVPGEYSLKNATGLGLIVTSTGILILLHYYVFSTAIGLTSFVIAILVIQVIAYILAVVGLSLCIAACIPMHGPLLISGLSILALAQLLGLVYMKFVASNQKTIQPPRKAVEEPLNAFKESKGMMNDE
HA–CD47Δ44–50 (Q08722, form named): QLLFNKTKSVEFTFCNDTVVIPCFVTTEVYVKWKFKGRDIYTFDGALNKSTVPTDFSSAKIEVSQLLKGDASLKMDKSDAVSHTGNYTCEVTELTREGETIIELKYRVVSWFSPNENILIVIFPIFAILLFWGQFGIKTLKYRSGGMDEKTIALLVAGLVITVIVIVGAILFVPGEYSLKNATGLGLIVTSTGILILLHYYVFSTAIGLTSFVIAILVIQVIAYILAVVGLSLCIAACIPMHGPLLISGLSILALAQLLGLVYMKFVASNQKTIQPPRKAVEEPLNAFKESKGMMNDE
HA–CD47Δ62–67 (Q08722, form named): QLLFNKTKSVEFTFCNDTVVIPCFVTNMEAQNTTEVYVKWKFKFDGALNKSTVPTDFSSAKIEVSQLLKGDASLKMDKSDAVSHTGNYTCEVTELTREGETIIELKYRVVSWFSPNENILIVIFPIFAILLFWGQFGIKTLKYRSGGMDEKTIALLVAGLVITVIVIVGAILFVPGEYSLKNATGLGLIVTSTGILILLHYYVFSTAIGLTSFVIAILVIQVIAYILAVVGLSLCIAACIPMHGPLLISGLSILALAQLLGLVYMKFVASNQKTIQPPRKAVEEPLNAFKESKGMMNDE
HA–CD47Δ69–73 (Q08722, form named): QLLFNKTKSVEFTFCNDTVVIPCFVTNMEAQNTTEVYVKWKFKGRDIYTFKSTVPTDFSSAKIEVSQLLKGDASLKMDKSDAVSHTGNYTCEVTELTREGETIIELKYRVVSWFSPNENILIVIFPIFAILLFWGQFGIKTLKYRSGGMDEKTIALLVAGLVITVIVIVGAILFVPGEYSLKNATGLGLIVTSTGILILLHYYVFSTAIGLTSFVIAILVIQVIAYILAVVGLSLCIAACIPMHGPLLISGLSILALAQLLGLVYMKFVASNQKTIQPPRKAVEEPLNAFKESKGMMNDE
HA–CD47Δ80–85 (Q08722, form named): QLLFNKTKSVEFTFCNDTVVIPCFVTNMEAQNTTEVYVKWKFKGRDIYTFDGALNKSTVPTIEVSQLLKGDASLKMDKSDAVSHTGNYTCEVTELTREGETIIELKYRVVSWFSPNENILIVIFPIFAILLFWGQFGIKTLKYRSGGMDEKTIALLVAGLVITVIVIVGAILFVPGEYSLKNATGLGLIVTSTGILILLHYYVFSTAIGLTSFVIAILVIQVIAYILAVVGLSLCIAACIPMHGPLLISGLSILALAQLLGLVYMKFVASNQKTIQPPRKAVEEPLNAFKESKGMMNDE
UniProt P06756, residues 31-1048: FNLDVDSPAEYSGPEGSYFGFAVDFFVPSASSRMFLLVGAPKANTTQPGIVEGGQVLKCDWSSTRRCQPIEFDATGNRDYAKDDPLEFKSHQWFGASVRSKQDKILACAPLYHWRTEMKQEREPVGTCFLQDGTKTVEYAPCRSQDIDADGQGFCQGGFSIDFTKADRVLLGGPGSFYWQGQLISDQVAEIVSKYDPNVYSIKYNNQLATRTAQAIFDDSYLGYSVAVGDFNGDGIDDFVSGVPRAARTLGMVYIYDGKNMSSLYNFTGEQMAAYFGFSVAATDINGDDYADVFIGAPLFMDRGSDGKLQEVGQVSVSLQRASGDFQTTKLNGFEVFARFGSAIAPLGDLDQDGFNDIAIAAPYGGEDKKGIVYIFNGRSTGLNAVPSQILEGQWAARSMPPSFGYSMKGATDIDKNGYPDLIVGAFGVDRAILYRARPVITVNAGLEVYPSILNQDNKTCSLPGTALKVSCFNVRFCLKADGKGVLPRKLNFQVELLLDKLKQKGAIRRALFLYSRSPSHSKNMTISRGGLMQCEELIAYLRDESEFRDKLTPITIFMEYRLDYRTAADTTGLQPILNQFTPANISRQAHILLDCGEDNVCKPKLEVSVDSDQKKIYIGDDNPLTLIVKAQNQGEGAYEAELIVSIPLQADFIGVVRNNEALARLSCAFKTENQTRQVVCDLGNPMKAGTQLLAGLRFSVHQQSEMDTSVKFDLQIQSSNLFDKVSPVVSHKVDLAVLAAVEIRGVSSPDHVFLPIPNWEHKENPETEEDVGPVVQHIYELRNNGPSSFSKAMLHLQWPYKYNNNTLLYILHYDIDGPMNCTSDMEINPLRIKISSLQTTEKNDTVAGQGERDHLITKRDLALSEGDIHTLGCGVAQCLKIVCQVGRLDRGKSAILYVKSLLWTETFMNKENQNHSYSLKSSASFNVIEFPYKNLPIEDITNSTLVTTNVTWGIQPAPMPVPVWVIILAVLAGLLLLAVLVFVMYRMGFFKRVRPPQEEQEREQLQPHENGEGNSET
UniProt P05106, residues 27-788: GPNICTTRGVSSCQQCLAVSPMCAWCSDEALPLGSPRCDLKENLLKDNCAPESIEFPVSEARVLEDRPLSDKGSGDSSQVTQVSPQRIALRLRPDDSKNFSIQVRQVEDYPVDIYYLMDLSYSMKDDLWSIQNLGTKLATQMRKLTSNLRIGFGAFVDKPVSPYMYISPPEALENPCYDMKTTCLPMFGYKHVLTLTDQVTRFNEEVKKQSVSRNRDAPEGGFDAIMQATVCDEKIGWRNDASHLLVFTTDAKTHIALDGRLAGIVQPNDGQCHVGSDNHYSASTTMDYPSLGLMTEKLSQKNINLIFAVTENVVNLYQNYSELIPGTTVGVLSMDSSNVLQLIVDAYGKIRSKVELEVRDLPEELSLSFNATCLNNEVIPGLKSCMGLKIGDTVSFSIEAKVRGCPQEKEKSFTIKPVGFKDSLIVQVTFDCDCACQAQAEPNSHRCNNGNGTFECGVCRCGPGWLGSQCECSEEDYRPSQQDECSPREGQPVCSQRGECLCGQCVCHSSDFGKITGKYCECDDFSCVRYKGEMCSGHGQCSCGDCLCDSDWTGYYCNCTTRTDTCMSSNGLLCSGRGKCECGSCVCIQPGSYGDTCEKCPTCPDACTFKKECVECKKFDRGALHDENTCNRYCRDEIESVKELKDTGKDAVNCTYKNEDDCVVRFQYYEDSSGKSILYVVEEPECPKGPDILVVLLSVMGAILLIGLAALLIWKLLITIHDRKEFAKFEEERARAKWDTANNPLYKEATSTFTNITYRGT

What was measured:
[1] = target: HA-tagged CD47 (pcDNA3.1–hCD47–HA) (human) (UniProt Q08722); assay: co-IP; HEK293 cells cotransfected with Flag-αv, Myc-β3 and HA-CD47; immunoprecipitation by HA; blots for αv and β3
[2] = target: Flag-tagged integrin αv subunit (pcDNA3.1–hITGAV–Flag) (human) (UniProt P06756); assay: co-IP; HEK293 cells cotransfected with HA–CD47 (or one of six loop deletions) and Flag–ITGAV or Myc–ITGB3; immunoprecipitation with Flag- or Myc-beads, overnight at 4 °C; blot for HA
[3] = target: Myc-tagged integrin β3 subunit (pcDNA3.1–hITGB3–Myc) (human) (UniProt P05106); assay: as above

Row | binding [1] | binding [2] | binding [3] | Substance
1 | binds |  |  | Flag-tagged integrin αv subunit (pcDNA3.1–hITGAV–Flag) (from UniProt P06756 31-1048)
2 |  | binds | binds | HA-tagged CD47 (pcDNA3.1–hCD47–HA) (from UniProt Q08722 19-323)
3 |  | binds | binds | HA–CD47Δ26–32 (from UniProt Q08722 19-323)
4 |  | binds | binds | HA–CD47Δ44–50 (from UniProt Q08722 19-323)
5 |  | binds | binds | HA–CD47Δ62–67 (from UniProt Q08722 19-323)
6 |  | binds | binds | HA–CD47Δ69–73 (from UniProt Q08722 19-323)
7 |  | binds | binds | HA–CD47Δ80–85 (from UniProt Q08722 19-323)
8 | binds |  |  | Myc-tagged integrin β3 subunit (pcDNA3.1–hITGB3–Myc) (from UniProt P05106 27-788)
